We go through three molecules from article PMC11177981.

Test [1] has as its target T1, Myc-GLUT4-GFP reporter stably expressed in 3T3-L1 adipocytes (UniProt P14672).
T1 sequence: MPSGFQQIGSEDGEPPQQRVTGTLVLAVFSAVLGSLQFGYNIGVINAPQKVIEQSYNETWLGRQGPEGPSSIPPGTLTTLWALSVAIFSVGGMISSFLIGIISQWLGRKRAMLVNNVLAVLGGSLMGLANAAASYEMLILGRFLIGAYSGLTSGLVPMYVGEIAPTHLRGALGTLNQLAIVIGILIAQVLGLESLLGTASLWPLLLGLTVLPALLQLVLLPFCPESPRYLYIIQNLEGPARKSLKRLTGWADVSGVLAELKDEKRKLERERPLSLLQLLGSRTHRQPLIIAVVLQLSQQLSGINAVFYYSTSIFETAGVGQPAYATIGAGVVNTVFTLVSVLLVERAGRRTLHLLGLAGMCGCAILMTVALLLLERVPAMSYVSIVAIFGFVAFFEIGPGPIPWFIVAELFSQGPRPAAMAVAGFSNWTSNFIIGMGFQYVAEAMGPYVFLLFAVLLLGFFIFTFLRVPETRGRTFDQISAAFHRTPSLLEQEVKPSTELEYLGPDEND
The test is described as follows: co-IP; anti-Myc magnetic beads on lysate (50mM Tris HCl, 150mM NaCl, 1mM EDTA, 1% TRITON X-100) of 3T3-L1 adipocytes stably expressing Myc-GLUT4-GFP, stimulated with insulin for various times; 3T3 WT without Myc-GLUT4 as negative control.

For test [2], the target named is T2, FLAG-GLUT4 (human full length) expressed in HEK293T cells (human) (UniProt P14672).
T2 sequence: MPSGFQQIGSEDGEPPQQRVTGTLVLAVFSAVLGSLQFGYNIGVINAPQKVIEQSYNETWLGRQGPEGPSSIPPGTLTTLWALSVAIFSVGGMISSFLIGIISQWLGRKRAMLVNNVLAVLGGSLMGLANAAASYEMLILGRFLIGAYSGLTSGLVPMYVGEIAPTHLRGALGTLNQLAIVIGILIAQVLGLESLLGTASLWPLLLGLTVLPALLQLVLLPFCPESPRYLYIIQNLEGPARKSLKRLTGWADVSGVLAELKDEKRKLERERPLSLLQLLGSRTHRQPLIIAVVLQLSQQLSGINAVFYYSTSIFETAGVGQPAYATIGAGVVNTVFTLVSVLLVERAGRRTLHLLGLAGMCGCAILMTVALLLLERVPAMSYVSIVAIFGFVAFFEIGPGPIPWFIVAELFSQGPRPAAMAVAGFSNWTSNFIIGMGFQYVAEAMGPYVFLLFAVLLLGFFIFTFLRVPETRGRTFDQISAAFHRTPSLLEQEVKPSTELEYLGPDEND
The test is described as follows: co-IP; anti-FLAG magnetic beads on lysate (2% DDM, 25mM HEPES, 150mM NaCl) of HEK293T cells transfected with FLAG-GLUT4 constructs; blot for endogenous RIG-I and UBXN9; vector pcDNA3.1-FLAG as control.

For test [3], the target named is T3, FLAG-GLUT4 Arg169Ala (R169A) expressed in HEK293T cells (human) (UniProt P14672).
T3 sequence: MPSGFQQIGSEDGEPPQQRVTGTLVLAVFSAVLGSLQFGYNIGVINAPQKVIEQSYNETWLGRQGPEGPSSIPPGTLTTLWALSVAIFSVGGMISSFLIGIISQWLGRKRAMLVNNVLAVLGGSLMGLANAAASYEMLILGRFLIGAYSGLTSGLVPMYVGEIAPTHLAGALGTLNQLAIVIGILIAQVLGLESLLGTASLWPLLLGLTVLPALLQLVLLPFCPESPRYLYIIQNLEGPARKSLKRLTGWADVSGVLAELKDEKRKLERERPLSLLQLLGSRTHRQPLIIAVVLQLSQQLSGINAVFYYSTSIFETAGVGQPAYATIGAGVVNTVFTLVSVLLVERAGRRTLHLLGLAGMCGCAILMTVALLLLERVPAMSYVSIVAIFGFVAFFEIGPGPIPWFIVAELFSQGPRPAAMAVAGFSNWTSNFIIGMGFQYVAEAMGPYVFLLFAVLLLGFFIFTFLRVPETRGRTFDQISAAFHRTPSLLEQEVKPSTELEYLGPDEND
The test is described as above.

Test [4] has as its target T4, mitochondrial antiviral-signaling protein (MAVS), endogenous in C2C12 cells (mouse (endogenous in C2C12)), Q8VCF0.
T4 chain: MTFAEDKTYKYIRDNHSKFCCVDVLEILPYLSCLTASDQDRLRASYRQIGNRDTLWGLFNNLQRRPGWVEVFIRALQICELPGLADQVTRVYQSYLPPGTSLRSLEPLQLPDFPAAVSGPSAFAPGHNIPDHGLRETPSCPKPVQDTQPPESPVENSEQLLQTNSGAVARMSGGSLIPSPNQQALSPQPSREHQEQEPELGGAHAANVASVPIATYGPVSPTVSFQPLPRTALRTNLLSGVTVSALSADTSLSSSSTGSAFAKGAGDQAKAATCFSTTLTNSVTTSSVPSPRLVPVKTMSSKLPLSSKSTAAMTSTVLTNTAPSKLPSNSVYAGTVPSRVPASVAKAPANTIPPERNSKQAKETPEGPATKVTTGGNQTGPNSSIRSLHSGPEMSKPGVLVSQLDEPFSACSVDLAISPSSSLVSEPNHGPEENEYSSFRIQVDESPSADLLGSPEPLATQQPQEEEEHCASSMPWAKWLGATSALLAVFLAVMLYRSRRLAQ
Put plainly: native gel or EMSA; C2C12 lysate in 2% DDM, 25mM HEPES, 150mM NaCl on 4-16% NativePAGE, blot for MAVS; Ubxn9+/+, Ubxn9-/-, Slc2a4+/+ and Slc2a4-/- cells, 3p-hpRNA for 6 hr. As to conditions: remark: other sources report otherwise. (Mobility shift assays separate free from complexed probe on a gel.)

Results are given in words; binding and its absence hold for the method and conditions named. For some of these results: In cells and extracts the contact can be indirect. Some results given as binding are weak or reduced against the parent protein; the word gives no strength. For some of these results: Sequences can lack the tags named with a protein.

B1: retinoic acid inducible gene I (RIG-I), endogenous in 3T3-L1 adipocytes (protein, UniProt Q6Q899 1-926)
chain: MTAEQRQNLQAFRDYIKKILDPTYILSYMSSWLEDEEVQYIQAEKNNKGPMEAASLFLQYLLKLQSEGWFQAFLDALYHAGYCGLCEAIESWDFQKIEKLEEHRLLLRRLEPEFKATVDPNDILSELSECLINQECEEIRQIRDTKGRMAGAEKMAECLIRSDKENWPKVLQLALEKDNSKFSELWIVDKGFKRAESKADEDDGAEASSIQIFIQEEPECQNLSQNPGPPSEASSNNLHSPLKPRNYQLELALPAKKGKNTIICAPTGCGKTFVSLLICEHHLKKFPCGQKGKVVFFANQIPVYEQQATVFSRYFERLGYNIASISGATSDSVSVQHIIEDNDIIILTPQILVNNLNNGAIPSLSVFTLMIFDECHNTSKNHPYNQIMFRYLDHKLGESRDPLPQVVGLTASVGVGDAKTAEEAMQHICKLCAALDASVIATVRDNVAELEQVVYKPQKISRKVASRTSNTFKCIISQLMKETEKLAKDVSEELGKLFQIQNREFGTQKYEQWIVGVHKACSVFQMADKEEESRVCKALFLYTSHLRKYNDALIISEDAQMTDALNYLKAFFHDVREAAFDETERELTRRFEEKLEELEKVSRDPSNENPKLRDLYLVLQEEYHLKPETKTILFVKTRALVDALKKWIEENPALSFLKPGILTGRGRTNRATGMTLPAQKCVLEAFRASGDNNILIATSVADEGIDIAECNLVILYEYVGNVIKMIQTRGRGRARDSKCFLLTSSADVIEKEKANMIKEKIMNESILRLQTWDEMKFGKTVHRIQVNEKLLRDSQHKPQPVPDKENKKLLCGKCKNFACYTADIRVVETSHYTVLGDAFKERFVCKPHPKPKIYDNFEKKAKIFCAKQNCSHDWGIFVRYKTFEIPVIKIESFVVEDIVSGVQNRHSKWKDFHFERIQFDPAEMSV
Consider B1, for which the binding entry in test [1] is recorded as “binds”.

B2: retinoic acid inducible gene I (RIG-I), endogenous in HEK293T cells (protein, UniProt O95786 1-925)
chain: MTTEQRRSLQAFQDYIRKTLDPTYILSYMAPWFREEEVQYIQAEKNNKGPMEAATLFLKFLLELQEEGWFRGFLDALDHAGYSGLYEAIESWDFKKIEKLEEYRLLLKRLQPEFKTRIIPTDIISDLSECLINQECEEILQICSTKGMMAGAEKLVECLLRSDKENWPKTLKLALEKERNKFSELWIVEKGIKDVETEDLEDKMETSDIQIFYQEDPECQNLSENSCPPSEVSDTNLYSPFKPRNYQLELALPAMKGKNTIICAPTGCGKTFVSLLICEHHLKKFPQGQKGKVVFFANQIPVYEQQKSVFSKYFERHGYRVTGISGATAENVPVEQIVENNDIIILTPQILVNNLKKGTIPSLSIFTLMIFDECHNTSKQHPYNMIMFNYLDQKLGGSSGPLPQVIGLTASVGVGDAKNTDEALDYICKLCASLDASVIATVKHNLEELEQVVYKPQKFFRKVESRISDKFKYIIAQLMRDTESLAKRICKDLENLSQIQNREFGTQKYEQWIVTVQKACMVFQMPDKDEESRICKALFLYTSHLRKYNDALIISEHARMKDALDYLKDFFSNVRAAGFDEIEQDLTQRFEEKLQELESVSRDPSNENPKLEDLCFILQEEYHLNPETITILFVKTRALVDALKNWIEGNPKLSFLKPGILTGRGKTNQNTGMTLPAQKCILDAFKASGDHNILIATSVADEGIDIAQCNLVILYEYVGNVIKMIQTRGRGRARGSKCFLLTSNAGVIEKEQINMYKEKMMNDSILRLQTWDEAVFREKILHIQTHEKFIRDSQEKPKPVPDKENKKLLCRKCKALACYTADVRVIEECHYTVLGDAFKECFVSRPHPKPKQFSSFEKRAKIFCARQNCSHDWGIHVKYKTFEIPVIKIESFVVEDIATGVQTLYSKWKDFHFEKIPFDPAEMSK
For the molecule B2, the binding entry in test [2] and in test [3] was “binds” each time.

B3: mitochondrial antiviral-signaling protein (MAVS), endogenous in C2C12 cells, Q8VCF0 1-503 (protein)
chain: MTFAEDKTYKYIRDNHSKFCCVDVLEILPYLSCLTASDQDRLRASYRQIGNRDTLWGLFNNLQRRPGWVEVFIRALQICELPGLADQVTRVYQSYLPPGTSLRSLEPLQLPDFPAAVSGPSAFAPGHNIPDHGLRETPSCPKPVQDTQPPESPVENSEQLLQTNSGAVARMSGGSLIPSPNQQALSPQPSREHQEQEPELGGAHAANVASVPIATYGPVSPTVSFQPLPRTALRTNLLSGVTVSALSADTSLSSSSTGSAFAKGAGDQAKAATCFSTTLTNSVTTSSVPSPRLVPVKTMSSKLPLSSKSTAAMTSTVLTNTAPSKLPSNSVYAGTVPSRVPASVAKAPANTIPPERNSKQAKETPEGPATKVTTGGNQTGPNSSIRSLHSGPEMSKPGVLVSQLDEPFSACSVDLAISPSSSLVSEPNHGPEENEYSSFRIQVDESPSADLLGSPEPLATQQPQEEEEHCASSMPWAKWLGATSALLAVFLAVMLYRSRRLAQ
In the case of B3, the binding entry in test [4] is given as “binds”.
